From the supplement of paper PMC8326762, “A Small Molecule Inhibitor of Pex3–Pex19 Interaction Disrupts Glycosome Biogenesis and Causes Lethality in Trypanosoma brucei” (Frontiers in Cell and Developmental Biology, 2021)
Structures can show the parent of a compound that is named as a salt. The list shows a part of the results. Single values of this set are uncertain.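 Yeast growth was measured as optical density at 600 nm. Two-hybrid strains grew without histidine, so growth depended on Pex3–Pex19 binding. A compound was trypanosome-selective if it reduced growth of the trypanosome-pair strain by over 65% and of the human-pair strain by under 65%.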

system: Saccharomyces cerevisiae HF7c pdr5Δ; experiment: general growth inhibition of yeast HF7c pdr5Δ in -Leu -Trp medium, relative to DMSO; higher = stronger general growth inhibition; conditions: 100 µM; 24 h

Row | Compound | general growth inhibition
1 | CNC(=O)[C@H]1O[C@@H](n2cnc3c(NCc4cccc(I)c4)nc(Cl)nc32)[C@H](O)[C@@H]1O [Chloro-IB-MECA] | 14.2%
2 | O=c1[nH]c(=S)[nH]c(-c2ccccc2)c1Cc1c(O)ccc2ccccc12 [Cambinol] | 28.6%
3 | O=C(O)C1CCNCC1 [Isonipecotic acid] | 47.5%
4 | Nc1nc(N)c2nc(-c3ccccc3)c(N)nc2n1 [Triamterene] | 4.09%
5 | N[C@@H](Cc1c[nH]c2ccc(O)cc12)C(=O)O [5-Hydroxy-L-tryptophan] | 38.7%
6 | CC(C)NC[C@H](O)COc1ccc(CC(N)=O)cc1 [S(-)-Atenolol] | 33.6%
7 | O=C(O)CCc1ccc(NCc2cccc(Oc3ccccc3)c2)cc1 | 84.2%
8 | Oc1ncnc2[nH]ncc12 [Allopurinol] | 48.1%
9 | O=C(CCCN1CCC(O)(c2ccc(Cl)cc2)CC1)c1ccc(F)cc1 [Haloperidol] | 28.5%
10 | NC(N)=NC(N)=Nc1ccccc1 [1-Phenylbiguanide] | 48%
11 | CC/C(=C(\c1ccccc1)c1ccc(OCCN(C)C)cc1)c1ccccc1 [Tamoxifen citrate] | 57.1%
12 | CCCCCCCCCCCCCCCCCCN(CCCCCCCCCCCCCCCCCC)CCCN(CCO)CCO [Avridine] | 51.1%
13 | N[C@H](CO)C(=O)O [D-Serine] | 49.2%
14 | CCC1(c2ccccc2)C(=O)NCNC1=O [Primidone] | 45.9%
15 | C=CCNc1ncnc2ccc(Br)cc12 | 50.6%
16 | NC1=NCC2c3ccccc3Cc3ccccc3N12 (stereo unspecified) [Epinastine hydrochloride] | 28%

Gathered by group: the entries above with a carbonyl joined to an NH by a bond outside any ring.
Row | Compound | general growth inhibition
1 | CNC(=O)[C@H]1O[C@@H](n2cnc3c(NCc4cccc(I)c4)nc(Cl)nc32)[C@H](O)[C@@H]1O [Chloro-IB-MECA] | 14.2%
6 | CC(C)NC[C@H](O)COc1ccc(CC(N)=O)cc1 [S(-)-Atenolol] | 33.6%
